From PubChem BioAssay AID504444 (National Center for Advancing Translational Sciences (NCATS), 2011)
In all, about 360,000 compounds went through this assay and about 7,500 (2.1%) were called active. Inconclusive means that the source gave no clear call. Such entries were picked first, then a sample of the others. The call rests on the fitted dose curve; in most records, active means well fitted inhibition curve with a large enough effect; inconclusive means small, poorly fitted or top-dose-only effect, or effect the other way; inactive means flat fitted curve, though single readings scatter. Potencies beside an inconclusive call are fits to weak or partial responses and may not hold up.

Test: Nrf2 qHTS screen for inhibitors; further: nearly all actives have a fitted effect of over 60% in size
Conditions: A549 ARE-Fluc reporter, luciferase luminescence, 18-24 h; series mostly up to 46 µM
Procedure, shortened: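 Cells were seeded and rested 2 h, then exposed to compounds for 18-24 h. CellTiter-Fluor was read first as a viability measure. BugLite was added 15 min before the final luminescent read of ARE-luciferase activity in A549 cells.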
Potency means the concentration at half of the fitted maximal effect.

Structure (SMILES)	Potency
CCCN(C(=O)Cn1nc(Cc2cccnc2)c2ccccc2c1=O)c1ccc(C(C)C)cc1	inconclusive: 29.1 µM [falling, single point]
CN(C(=O)C=Cc1ccccc1)c1ccccc1	inconclusive: 25.9 µM [activator, single point]
N#Cc1c(N)n[nH]c1CCCN	inconclusive: 0.058 µM [falling, partial curve, poor fit]
Cc1ccc(C(=O)COC(=O)c2cccc(NC(=O)c3ccc([N+](=O)[O-])cc3[N+](=O)[O-])c2)cc1	inactive
O=S(=O)(Nc1ccc(N2CCCCC2)cc1)c1cccc2cccnc12	inconclusive: 10.3 µM [falling, partial curve]
CCOc1ccc(CCNC(c2nnc(-c3ccccc3)o2)c2ccccc2Cl)cc1OCC (stereo not given)	inconclusive: 29.1 µM [falling, single point]
CC1(C)Cc2c(sc3nnn(CC(=O)Nc4ccccc4)c(=O)c23)CO1	inconclusive: 16.4 µM [falling, partial curve, poor fit]
Cc1ccc(-c2cn3c(n2)sc2cc(C(=O)NC4CCCCCC4)ccc23)c(C)c1	inconclusive: 8.2 µM [falling, partial curve, poor fit]
COc1ccc(C(=O)Cn2c(C)nc([N+](=O)[O-])c2Br)cc1	inconclusive: 20.6 µM [falling, single point]
CN(C(=O)c1cccc(NC(=O)Cc2cccc([N+](=O)[O-])c2)c1)C1CCCC1	active: 10.3 µM
Cc1c(NC(=O)c2cnn3cccnc23)c(=O)n(-c2ccccc2)n1C	inconclusive: 25.9 µM [activator, single point]
CCN(CC)S(=O)(=O)c1ccc(C(=O)Nc2nnc(-c3ccco3)o2)cc1	inconclusive: 4.61 µM [falling, full curve]
COc1ccc(OC)c(NC(=O)C2CCN(Cc3cnn(-c4ccccc4)c3-n3cccc3)CC2)c1	inconclusive: 29.1 µM [falling, single point]
NC(=O)CC(NC(=O)Cc1ccc(Br)cc1)c1ccc(N2CCN(c3ccccc3)CC2)c([N+](=O)[O-])c1 (stereo not given)	inconclusive: 23.1 µM [falling, partial curve, poor fit]
O=C(COC(=O)c1cccs1)NCCc1ccc(F)cc1	inconclusive: 0.0651 µM [falling, partial curve, poor fit]
S=c1nc[nH]c2c1cnn2Cc1ccccc1	inconclusive: 16.4 µM [falling, single point]
COC(=O)/C=C1\N/C(=N\c2nc(C)cc(C)n2)N(c2ccc(C)c(C)c2)C1=O	inconclusive: 29.1 µM [falling, partial curve, poor fit]
Cc1cc(C)c(C)c(S(=O)(=O)N2CCN(c3ccc(O)cc3)CC2)c1C	inconclusive: 16.4 µM [falling, single point]
Cc1ccc(-n2nnnc2CNC(=O)c2ccc([N+](=O)[O-])o2)cc1C	inactive
CC(Cc1ccsc1)NC(=O)CCc1nnc(COc2ccccc2)o1 (stereo not given)	inconclusive: 0.116 µM [activator, full curve, poor fit]

Structure (SMILES)	Potency
COc1ccc(Nc2nc(NC(C)(C)C)nc(N3CCCC3)n2)c(OC)c1	inconclusive: 13 µM [falling, partial curve, poor fit]
CN(C)S(=O)(=O)c1ccc(Cl)c(NC(=O)CSc2nc3c(cc2C#N)C(=O)CC(C)(C)C3)c1	inconclusive: 25.9 µM [falling, single point]
COc1ccc(C2/C(=C(/O)c3ccc(C)cc3)C(=O)C(=O)N2c2ccccn2)cc1 (stereo not given)	inactive
O=C(Nc1ccc(-n2ccnc2P(=O)(O)c2ccccc2)cc1)c1ccccc1Br	inconclusive: 2.91 µM [activator, partial curve]
O=C(CSc1ccc(Br)cc1)N1CCOCC1	inconclusive: 20.6 µM [activator, single point]
CCOCCc1nn2c(=O)cc(COC(=O)c3ccc4c(c3)OCO4)nc2s1	inconclusive: 18.4 µM [activator, single point]
Cc1cc(C)cc(C(=O)NCC(=O)OCC(=O)N(C)c2ccccc2)c1	inconclusive: 11.6 µM [falling, partial curve, poor fit]
COc1ccc(NC(=O)C2CCCN(c3nc(C)cc(C)n3)C2)cc1 (stereo not given)	inconclusive: 14.6 µM [falling, partial curve]
CCOc1ccc(NC(=O)C[n+]2ccc(N(C)C)cc2)cc1	inconclusive: 29.1 µM [falling, single point]
Cn1c(C(=O)Nc2cccc(Cl)c2)cc2c(=O)n(C)c3ccccc3c21	inactive
Cc1ccc(CNc2nc3nc(C)c(Cl)c(C)n3n2)cc1	inconclusive: 1.3 µM [activator, full curve]
COc1ccccc1C1CC(=O)Oc2cc(C)c(Cl)cc21 (stereo not given)	inactive
COc1cc(/C=C2\SC(N)=NC2=O)ccc1OCC(=O)Nc1ccc(C)cc1	inconclusive: 13 µM [falling, partial curve]
N#Cc1ccc(C2N=C(c3ccccc3)NO2)cc1 (stereo not given)	inconclusive: 16.4 µM [activator, partial curve]
Cc1nc2cc(C)c(C)cc2s1	inactive
CC1CN(c2ccc(Cl)cc2[N+](=O)[O-])CCN1S(C)(=O)=O (stereo not given)	inconclusive: 14.6 µM [falling, partial curve, poor fit]
COc1ccc(/C=N/Nc2nc(Nc3ccccc3)nc(N3CCCC3)n2)cc1[N+](=O)[O-]	inconclusive: 29.1 µM [falling, single point]
Cc1cccc(-c2cc(C(=O)O)c3c(-c4ccc(F)cc4)[nH]nc3n2)c1	inconclusive: 0.92 µM [activator, partial curve, poor fit]
N#C/C(=N\Nc1ccc(S(=O)(=O)N2CCc3ccccc32)cc1)C(N)=S	inconclusive: 16.4 µM [falling, partial curve]
Cc1ccccc1OCC(=O)NNC(=O)c1ccc(-c2ccccc2)cc1	inconclusive: 9.2 µM [falling, partial curve]

Looked up one by one from the entries so far (2):
Structure (SMILES)	Potency
Cc1cccc(-c2cc(C(=O)O)c3c(-c4ccc(F)cc4)[nH]nc3n2)c1	inconclusive: 0.92 µM [activator, partial curve, poor fit]
COc1ccccc1C1CC(=O)Oc2cc(C)c(Cl)cc21 (stereo not given)	inactive
